Experimental data from the supplement of paper PMC4604168 (melanoma cell lines).
This is one part of the list. Many values rest on one well or one pass, so single values are uncertain.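 Cells were imaged in 1,536-well plates, and nuclei stained with an antibody against cleaved PARP were counted against all DNA-stained nuclei to give the apoptosis fraction. Screening doses were chosen to leave most cells alive, and resting and induced cleaved-PARP levels differ strongly between cell lines.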

Assays:
Assay in all cases: cleaved PARP positive nuclei fraction relative to DMSO control; melanoma cells; higher = more apoptosis
Conditions in all cases: library dose: low library concentration; 72 h
COLO792 = tested on: COLO792
COLO800 = tested on: COLO800
COLO829 = tested on: COLO829
G361 = tested on: G361
IPC-298 = tested on: IPC-298
IST-MEL1 = tested on: IST-MEL1
LB2518-MEL = tested on: LB2518-MEL
LOXIMVI = tested on: LOXIMVI
MZ2-MEL = tested on: MZ2-MEL
MeWo = tested on: MeWo
RPMI7951 = tested on: RPMI7951
RVH-421 = tested on: RVH-421
SkMel28 = tested on: SkMel28
SkMel2 = tested on: SkMel2
SkMel30 = tested on: SkMel30
SkMel5 = tested on: SkMel5
UACC257 = tested on: UACC257
UACC62 = tested on: UACC62
MEL-HO = tested on: MEL-HO

| Compound | cleaved PARP positive nuclei fraction (COLO792) [%] | cleaved PARP positive nuclei fraction (COLO800) [%] | cleaved PARP positive nuclei fraction (COLO829) [%] | cleaved PARP positive nuclei fraction (G361) [%] | cleaved PARP positive nuclei fraction (IPC-298) [%] | cleaved PARP positive nuclei fraction (IST-MEL1) [%] | cleaved PARP positive nuclei fraction (LB2518-MEL) [%] | cleaved PARP positive nuclei fraction (LOXIMVI) [%] | cleaved PARP positive nuclei fraction (MZ2-MEL) [%] | cleaved PARP positive nuclei fraction (MeWo) [%] | cleaved PARP positive nuclei fraction (RPMI7951) [%] | cleaved PARP positive nuclei fraction (RVH-421) [%] | cleaved PARP positive nuclei fraction (SkMel28) [%] | cleaved PARP positive nuclei fraction (SkMel2) [%] | cleaved PARP positive nuclei fraction (SkMel30) [%] | cleaved PARP positive nuclei fraction (SkMel5) [%] | cleaved PARP positive nuclei fraction (UACC257) [%] | cleaved PARP positive nuclei fraction (UACC62) [%] | cleaved PARP positive nuclei fraction (MEL-HO) [%] |
| --- | --- | --- | --- | --- | --- | --- | --- | --- | --- | --- | --- | --- | --- | --- | --- | --- | --- | --- | --- |
| O=c1[nH]nc(Sc2ncc([N+](=O)[O-])s2)n1-c1ccc2c(c1)OCCO2 + COc1ccc(-c2ccc3c(N4CCOCC4)nc(N4C[C@@H](C)O[C@@H](C)C4)nc3n2)cc1CO [KU0063794] (first compound 0.2 µM, partner dose 0.02 µM) | 78 | 97.6 | 95.6 | 50.1 | 91.5 | 132 | 70.8 | 94.4 | 44.1 | 81.8 | 64.5 | 15.2 | 88.7 | 177 | 87.9 | 134 | 165 | 62.8 | – |
| CCCCCCCCCCCCCCCCCCOP(=O)([O-])OC1CC[N+](C)(C)CC1 [Perifosine] + CCc1ccc(CCOc2ccc(CC3SC(=O)NC3=O)cc2)nc1 [pioglitazone] (first compound 0.4 µM, partner dose 2 µM) | 68 | 124 | 135 | 72.1 | 94.5 | 126 | 285 | 153 | 159 | 136 | 57.1 | 87.9 | 107 | 59.1 | 49.2 | 66.5 | 74.3 | 247 | – |
| O=c1[nH]nc(Sc2ncc([N+](=O)[O-])s2)n1-c1ccc2c(c1)OCCO2 + COC(=O)c1sccc1S(=O)(=O)Nc1ccc(Nc2ccccc2)cc1OC [GSK0660] (first compound 0.2 µM, partner dose 1 µM) | 127 | 99.1 | 125 | 81.2 | 135 | 237 | 54 | 102 | 66.1 | 66.2 | 106 | 189 | 49.1 | 70.5 | 15.8 | 81.4 | 80.4 | 67.8 | – |
| CC[C@]1(O)C[C@H]2CN(CCc3c([nH]c4ccccc34)[C@@](C(=O)OC)(c3cc4c(cc3OC)N(C=O)[C@H]3[C@@](O)(C(=O)OC)[C@H](OC(C)=O)[C@]5(CC)C=CCN6CC[C@]43[C@@H]65)C2)C1 [vincristine] + COc1cc(N2CCC(N3CCN(C)CC3)CC2)ccc1Nc1ncc(Cl)c(Nc2ccccc2S(=O)(=O)C(C)C)n1 [NVP-TAE684] (first compound 0.0001 µM, partner dose 0.08 µM) | 108 | 107 | 165 | 86.1 | 85.9 | 166 | 129 | 90.5 | 74.6 | 214 | 139 | 108 | 252 | 92.7 | 210 | 101 | 418 | 582 | – |
| Cc1ccc(Nc2nccc(N(C)c3ccc4c(C)n(C)nc4c3)n2)cc1S(N)(=O)=O [Pazopanib] + O=C(O)C(=O)Nc1sc2c(c1C(=O)O)CCNC2 [TCS401] (first compound 0.4 µM, partner dose 1.66667 µM) | 55.9 | 74.5 | 142 | 166 | 61.1 | 80.4 | 69.7 | 94.1 | 83.5 | 95.4 | 101 | 105 | 125 | 117 | 148 | 90.6 | 72.8 | 36.5 | – |
| O=C(/C=C/c1cccnc1)NCCCCC1CCN(C(=O)c2ccccc2)CC1 + COc1cc2ncnc(Nc3ccc(Oc4ccccc4)cc3)c2cc1OC [SrcI1] (first compound 0.01 µM, partner dose 2 µM) | 315 | 1280 | 324 | 3240 | 138 | 58.7 | 219 | 80.3 | 391 | 50.2 | 129 | 109 | 160 | 651 | 498 | 71.7 | 136 | 191 | – |
| Cc1cn(-c2cc(NC(=O)c3ccc(C)c(Nc4nccc(-c5cccnc5)n4)c3)cc(C(F)(F)F)c2)cn1 [nilotinib] + CCN(CC)CCCCNc1ncc2cc(-c3cc(OC)cc(OC)c3)c(NC(=O)NC(C)(C)C)nc2n1 [PD173074] (first compound 0.2 µM, partner dose 0.1 µM) | 132 | 137 | 163 | 178 | 46.1 | 78.5 | 76.9 | 242 | 93.1 | 47.3 | 105 | 83.9 | 185 | 58.2 | 30.6 | 75.7 | 223 | 100 | – |
| O=C(Nc1cc(C(F)(F)F)cc(C(F)(F)F)c1)c1cc(Cl)ccc1O + N#Cc1c(O)c2c(-c3ccc(-c4ccccc4O)cc3)csc2[nH]c1=O [A769662] (first compound 0.016 µM, partner dose 2 µM) | 106 | 34 | 196 | 81 | 95.5 | 266 | 138 | 142 | 74.9 | 87.2 | 30.9 | 113 | 139 | 78 | 81.9 | 81.2 | 175 | 108 | – |
| O=C(/C=C/c1cccnc1)NCCCCC1CCN(C(=O)c2ccccc2)CC1 + O=C(O)C(=O)Nc1sc2c(c1C(=O)O)CCNC2 [TCS401] (first compound 0.01 µM, partner dose 1.66667 µM) | 109 | 236 | 229 | 2500 | 252 | 180 | 139 | 62.4 | 332 | 43.9 | 92.8 | 156 | 108 | 240 | 92 | 175 | 106 | 113 | – |
| N#CC[C@H](C1CCCC1)n1cc(-c2ncnc3[nH]ccc23)cn1 [ruxolitinib] + CC(C)CCN1c2nc(Nc3cc(F)c(O)c(F)c3)ncc2N(C)C(=O)C1C [BID1870] (first compound 1 µM, partner dose 0.2 µM) | 50.2 | 166 | 127 | 135 | 101 | 106 | 104 | 438 | 246 | 181 | 64.8 | 127 | 64.3 | 162 | 173 | 202 | 53.8 | 52.9 | – |
| Cc1cc(Nc2cc(N3CCN(C)CC3)nc(Sc3ccc(NC(=O)C4CC4)cc3)n2)n[nH]1 [Tozasertib] + O=c1cc(-c2cccc3c2Sc2ccccc2S3)oc(N2CCOCC2)c1 [KU55933] (first compound 0.006 µM, partner dose 1 µM) | 107 | 110 | 99 | 161 | 89.1 | 89.8 | 65.6 | 158 | 191 | 146 | 170 | 36.6 | 124 | 124 | 87 | 69.7 | 236 | 184 | – |
| N#CC[C@H](C1CCCC1)n1cc(-c2ncnc3[nH]ccc23)cn1 [ruxolitinib] + N#Cc1c(O)c2c(-c3ccc(-c4ccccc4O)cc3)csc2[nH]c1=O [A769662] (first compound 1 µM, partner dose 2 µM) | 105 | 18.5 | 41.6 | 109 | 45.4 | 133 | 59.3 | 55.5 | 80.2 | 96.4 | 149 | 93.5 | 62.1 | 97.3 | 44.1 | 72.6 | 42.6 | 188 | – |
| COc1cc([C@@H]2c3cc4c(cc3[C@@H](O[C@@H]3O[C@@H]5CO[C@@H](C)O[C@H]5[C@H](O)[C@H]3O)[C@H]3COC(=O)[C@H]23)OCO4)cc(OC)c1O [etoposide] + O=c1cc(-c2cccc3c2Sc2ccccc2S3)oc(N2CCOCC2)c1 [KU55933] (first compound 0.02 µM, partner dose 1 µM) | 122 | 108 | 19.7 | 84.6 | 91.8 | 87.6 | – | 134 | – | 138 | 92 | 76.1 | 99 | – | 628 | 76.8 | 113 | 86.4 | – |
| O=C(Nc1cc(C(F)(F)F)cc(C(F)(F)F)c1)c1cc(Cl)ccc1O + Cc1cc([N+](=O)[O-])ccc1NS(=O)(=O)c1cc(Cl)ccc1Cl [FH535] (first compound 0.016 µM, partner dose 1 µM) | 125 | 85.2 | 66.1 | 118 | 56.8 | 146 | – | 47.9 | – | 59.1 | 71.9 | 144 | 75.3 | 96.6 | 105 | 94.6 | 414 | 118 | – |
| Cc1ccc(Nc2nccc(N(C)c3ccc4c(C)n(C)nc4c3)n2)cc1S(N)(=O)=O [Pazopanib] + CCCCCCCCCCCC1=C(O)C(=O)C=C(O)C1=O [Embelin] (first compound 0.4 µM, partner dose 1.2 µM) | 64.3 | 94.7 | 59.7 | 84.5 | 45.5 | 101 | 196 | 48.4 | 173 | 123 | 76.3 | 113 | 101 | 122 | 51.2 | 75 | 224 | 80.6 | – |
| CC[C@]1(O)C[C@H]2CN(CCc3c([nH]c4ccccc34)[C@@](C(=O)OC)(c3cc4c(cc3OC)N(C=O)[C@H]3[C@@](O)(C(=O)OC)[C@H](OC(C)=O)[C@]5(CC)C=CCN6CC[C@]43[C@@H]65)C2)C1 [vincristine] + O=C1NC(=O)/C(=C/c2ccc(-c3ccc(F)cc3O)o2)S1 [AS252424] (first compound 0.0001 µM, partner dose 1 µM) | 83.1 | 65.5 | 201 | 94.2 | 93 | 92.7 | – | 59.1 | – | 85.3 | 102 | 25.2 | 167 | 39.7 | 139 | 78 | 325 | 266 | – |
| N#CC[C@H](C1CCCC1)n1cc(-c2ncnc3[nH]ccc23)cn1 [ruxolitinib] + C=CCn1c(=O)c2cnc(Nc3ccc(N4CCN(C)CC4)cc3)nc2n1-c1cccc(C(C)(C)O)n1 [MK1775] (first compound 1 µM, partner dose 0.02 µM) | 79 | 11.9 | 90.6 | 44.6 | 98.7 | 51.4 | – | 73.8 | – | 229 | 103 | 119 | 120 | – | 81.5 | 40.1 | 111 | 276 | 37.9 |
| O=C(Nc1cc(C(F)(F)F)cc(C(F)(F)F)c1)c1cc(Cl)ccc1O + Cn1cc(/C=C2\C(=O)Nc3cccnc32)c2ccccc21 [GW441756] (first compound 0.016 µM, partner dose 0.4 µM) | 77.6 | 130 | 126 | 97 | 46 | 38.1 | – | 51.5 | – | 197 | 69.6 | 101 | 73.8 | 39.7 | 22.6 | 292 | 40.5 | 76 | – |

Record cards (already shown). Order of values: cleaved PARP positive nuclei fraction (COLO792) [%]	cleaved PARP positive nuclei fraction (COLO800) [%]	cleaved PARP positive nuclei fraction (COLO829) [%]	cleaved PARP positive nuclei fraction (G361) [%]	cleaved PARP positive nuclei fraction (IPC-298) [%]	cleaved PARP positive nuclei fraction (IST-MEL1) [%]	cleaved PARP positive nuclei fraction (LB2518-MEL) [%]	cleaved PARP positive nuclei fraction (LOXIMVI) [%]	cleaved PARP positive nuclei fraction (MZ2-MEL) [%]	cleaved PARP positive nuclei fraction (MeWo) [%]	cleaved PARP positive nuclei fraction (RPMI7951) [%]	cleaved PARP positive nuclei fraction (RVH-421) [%]	cleaved PARP positive nuclei fraction (SkMel28) [%]	cleaved PARP positive nuclei fraction (SkMel2) [%]	cleaved PARP positive nuclei fraction (SkMel30) [%]	cleaved PARP positive nuclei fraction (SkMel5) [%]	cleaved PARP positive nuclei fraction (UACC257) [%]	cleaved PARP positive nuclei fraction (UACC62) [%]	cleaved PARP positive nuclei fraction (MEL-HO) [%]
N#CC[C@H](C1CCCC1)n1cc(-c2ncnc3[nH]ccc23)cn1 [ruxolitinib] + CC(C)CCN1c2nc(Nc3cc(F)c(O)c(F)c3)ncc2N(C)C(=O)C1C [BID1870] (first compound 1 µM, partner dose 0.2 µM) is listed with 50.2	166	127	135	101	106	104	438	246	181	64.8	127	64.3	162	173	202	53.8	52.9	–
O=C(Nc1cc(C(F)(F)F)cc(C(F)(F)F)c1)c1cc(Cl)ccc1O + N#Cc1c(O)c2c(-c3ccc(-c4ccccc4O)cc3)csc2[nH]c1=O [A769662] (first compound 0.016 µM, partner dose 2 µM) is listed with 106	34	196	81	95.5	266	138	142	74.9	87.2	30.9	113	139	78	81.9	81.2	175	108	–
